No constants are given. Whether binding was seen depends on the method and setting. Binding seen in cells or lysates may run through a third protein. Some binding calls cover weakened binding; strength is not graded here.

Amino acid sequences for entries named in this document (tags omitted).
UniProt P27449: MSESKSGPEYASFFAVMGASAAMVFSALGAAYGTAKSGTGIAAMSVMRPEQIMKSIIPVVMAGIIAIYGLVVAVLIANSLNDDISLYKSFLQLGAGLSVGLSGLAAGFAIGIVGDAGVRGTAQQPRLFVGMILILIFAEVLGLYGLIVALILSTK

What all share (assay): co-IP; 5x10^6 HK-2 cells lysed in Non-Denaturing Lysis Buffer; lysates incubated with primary antibodies or normal rabbit IgG and Protein A/G Magnetic Beads overnight at 4 °C; western blot; for STX17 with VAMP8 also cells with LV-shATP6V0C, LV-shTFEB, or LV-shATP6V0C in TFEB-overexpressed cells
For orientation: Immunoblotting shows a protein as a band on a membrane.

Assay [1] addresses T1, vesicle-associated membrane protein 8 (VAMP8) (human (endogenous in HK-2)) (UniProt Q9BV40).
T1 sequence: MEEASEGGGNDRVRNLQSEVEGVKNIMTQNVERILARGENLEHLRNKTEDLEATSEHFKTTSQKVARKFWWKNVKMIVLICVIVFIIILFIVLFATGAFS

The target in assay [2] is syntaxin17 (STX17) (human (endogenous in HK-2)) (UniProt P56962).
Assay [3] concerns the target ATP6V0C (human (endogenous in HK-2)) (UniProt P27449).
In assay [4] the target is T2, syntaxin17 (STX17) (human (endogenous in HK-2)), P56962.
T2 chain: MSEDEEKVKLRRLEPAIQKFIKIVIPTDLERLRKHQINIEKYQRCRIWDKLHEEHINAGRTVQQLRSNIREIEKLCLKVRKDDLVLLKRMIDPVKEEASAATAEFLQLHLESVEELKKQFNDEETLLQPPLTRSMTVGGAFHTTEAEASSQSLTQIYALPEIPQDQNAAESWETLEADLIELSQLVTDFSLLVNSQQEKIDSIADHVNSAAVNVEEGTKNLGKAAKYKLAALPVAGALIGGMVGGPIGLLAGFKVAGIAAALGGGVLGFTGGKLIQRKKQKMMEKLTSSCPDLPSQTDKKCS
Particulars: remark: other sources report otherwise.

As for ATP6V0C (from UniProt P27449 1-155), the binding entry in assay [1] and in assay [2] was “binds” throughout.
In the case of “syntaxin17 (STX17) (from UniProt P56962 1-302)”, the binding entry in assay [3] is listed as “binds”.

B1: vesicle-associated membrane protein 8 (VAMP8), Q9BV40 1-100 (protein)
chain: MEEASEGGGNDRVRNLQSEVEGVKNIMTQNVERILARGENLEHLRNKTEDLEATSEHFKTTSQKVARKFWWKNVKMIVLICVIVFIIILFIVLFATGAFS
As to B1, the binding result in assay [4] is “binds”.

These data come from paper PMC10929200.
